Reference: patent US20090111753A1, “Nogo-A Polypeptide Fragments, Variant Nogo Receptor-1 Polypeptides, and Uses Thereof” (Yale University, priority 2004, published 2009)
Residue numbers refer to the chain shown, from its start.

B1: 220, 223, 224: human NgR1 mutant, listed residues mutated to alanine (protein)
chain: CPGACVCYNEPKVTTSCPQQGLQAVPVGIPAASQRIFLHGNRISHVPAASFRACRNLTILWLHSNVLARIDAAAFTGLALLEQLDLSDNAQLRSVDPATFHGLGRLHTLHLDRCGLQELGPGLFRGLAALQYLYLQDNALQALPDDTFRDLGNLTHLFLHGNRISSVPERAFRGLHSLDRLLLHQNRVAHVHPAAFAALGRLMTLYLFANNLSALPTEALAPLRALQYLRLNDNPWVCDCRARPLWAWLQKFRGSSSEVPCSLPQRLAGRDLKRLAANDLQGCAVATGPYHPIWTGRATDEEPLGLPKCCQPDAADKASVLEPGRPASAGNALKGRVPPGDSPPGNGSGPRHINDSPFGTLPGSAEPPLTAVRPEGSEPPGFPTSGPRRRPGCSRKNRTRSHCRLGQAGSGGGGTGDSEGSGALPSLTCSLTPLGLALVLWTVLGPC
B2: 237, 256, 259: human NgR1 mutant, listed residues mutated to alanine (protein)
chain: B1 chain with A194H, A197R, A198D, N211A, R230A, D233A
B3: 256, 259, 284: human NgR1 mutant, listed residues mutated to alanine (protein)
chain: B1 chain with A194H, A197R, A198D, R230A, D233A, E258A
B4: 61, 108, 131: human NgR1 mutant, listed residues mutated to alanine (protein)
chain: B1 chain with R35A, E82A, R105A, A194H, A197R, A198D
B5: 63, 65, 87, 89: human NgR1 mutant, listed residues mutated to alanine (protein)
chain: B1 chain with F37A, H39A, W61A, H63A, A194H, A197R, A198D
B6: 237, 256, 284: human NgR1 mutant, listed residues mutated to alanine (protein)
chain: B1 chain with A194H, A197R, A198D, N211A, R230A, E258A
B7: human NgR1 alanine mutant 211, 213, 237, 256, 259, 284 (receptor)
chain: B1 chain with Q185A, R187A, A194H, A197R, A198D, N211A, R230A, D233A, E258A
B8: human NgR1 alanine mutant 189, 191, 211, 213, 237, 256, 259, 284 (receptor)
chain: CPGACVCYNEPKVTTSCPQQGLQAVPVGIPAASQRIFLHGNRISHVPAASFRACRNLTILWLHSNVLARIDAAAFTGLALLEQLDLSDNAQLRSVDPATFHGLGRLHTLHLDRCGLQELGPGLFRGLAALQYLYLQDNALQALPDDTFRDLGNLTHLFLHGNAIASVPERAFRGLHSLDRLLLHANAVAHVHPHAFRDLGRLMTLYLFANALSALPTEALAPLRALQYLALNANPWVCDCRARPLWAWLQKFRGSSSAVPCSLPQRLAGRDLKRLAANDLQGCAVATGPYHPIWTGRATDEEPLGLPKCCQPDAADKASVLEPGRPASAGNALKGRVPPGDSPPGNGSGPRHINDSPFGTLPGSAEPPLTAVRPEGSEPPGFPTSGPRRRPGCSRKNRTRSHCRLGQAGSGGGGTGDSEGSGALPSLTCSLTPLGLALVLWTVLGPC
B9: WT: wild type human NgR1 expressed in COS-7 cells (protein, UniProt Q9BZR6 27-447, looked up)
Reticulon-4 receptor: CPGACVCYNEPKVTTSCPQQGLQAVPVGIPAASQRIFLHGNRISHVPAASFRACRNLTILWLHSNVLARIDAAAFTGLALLEQLDLSDNAQLRSVDPATFHGLGRLHTLHLDRCGLQELGPGLFRGLAALQYLYLQDNALQALPDDTFRDLGNLTHLFLHGNRISSVPERAFRGLHSLDRLLLHQNRVAHVHPHAFRDLGRLMTLYLFANNLSALPTEALAPLRALQYLRLNDNPWVCDCRARPLWAWLQKFRGSSSEVPCSLPQRLAGRDLKRLAANDLQGCAVATGPYHPIWTGRATDEEPLGLPKCCQPDAADKASVLEPGRPASAGNALKGRVPPGDSPPGNGSGPRHINDSPFGTLPGSAEPPLTAVRPEGSEPPGFPTSGPRRRPGCSRKNRTRSHCRLGQAGSGGGGTGDSEGS

Each molecule was assayed on anti-NgR (assay: anti-NgR staining of NgR mutants). Settings: COS-7 cells expressing NgR mutants.
Format: binding
Set-up: key: ++: WT level; +: weaker than wild type; trace binding; −: no binding

anti-NgR, ++:
B1
B2
B3
B4
B5
B6
B7
B8
B9
